Test results as given in paper PMC6206484.
These are yes or no findings as the source states them, for the method shown. In cells and extracts the contact can be indirect. For some of these results: Binding calls can cover weak binding; strength is not graded here. For some of these results: Where a sequence is shown, tags or fusion partners need not be part of it. One block for each molecule: values may come before it.

Amino acid sequences for entries named in this document (tags omitted). A change or cut given only in a name is not applied to a line headed by its entry.
UniProt Q8NG27: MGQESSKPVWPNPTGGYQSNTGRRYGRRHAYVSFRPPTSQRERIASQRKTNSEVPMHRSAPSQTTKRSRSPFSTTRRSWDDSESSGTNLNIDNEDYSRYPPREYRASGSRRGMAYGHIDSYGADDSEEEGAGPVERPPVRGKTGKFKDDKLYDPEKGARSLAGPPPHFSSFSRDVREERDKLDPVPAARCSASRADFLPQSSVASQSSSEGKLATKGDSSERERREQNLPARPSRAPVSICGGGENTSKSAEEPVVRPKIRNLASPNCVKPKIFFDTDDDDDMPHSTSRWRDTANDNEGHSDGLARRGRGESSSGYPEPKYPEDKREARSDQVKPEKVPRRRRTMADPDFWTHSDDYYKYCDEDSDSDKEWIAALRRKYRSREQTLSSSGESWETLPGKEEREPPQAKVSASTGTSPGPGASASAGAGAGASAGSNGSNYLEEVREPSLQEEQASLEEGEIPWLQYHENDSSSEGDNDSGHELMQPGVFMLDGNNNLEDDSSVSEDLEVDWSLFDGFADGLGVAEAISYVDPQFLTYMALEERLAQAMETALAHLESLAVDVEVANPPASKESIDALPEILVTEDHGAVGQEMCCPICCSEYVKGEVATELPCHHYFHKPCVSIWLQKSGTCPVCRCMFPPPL

Columns and labels:
Flag-NSE1 (human) = biological target: T1, Flag-NSE1 (human) (UniProt Q8WV22); experiment: co-IP; 293T cells cotransfected with pCAGGS-HA-PJA1ΔR and pFlag constructs; RIPA lysis buffer; protein G-agarose, overnight at 4°C; washes with 150 mM NaCl wash buffer; blots with anti-HA or anti-Flag
T1 sequence: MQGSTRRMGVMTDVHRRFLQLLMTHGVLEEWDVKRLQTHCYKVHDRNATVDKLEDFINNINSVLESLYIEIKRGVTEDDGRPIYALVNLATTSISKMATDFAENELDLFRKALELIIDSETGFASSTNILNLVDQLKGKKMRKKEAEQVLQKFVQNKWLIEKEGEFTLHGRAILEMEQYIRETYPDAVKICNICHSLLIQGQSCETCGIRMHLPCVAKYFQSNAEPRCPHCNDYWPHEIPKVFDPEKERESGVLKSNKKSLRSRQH

Flag-NSE3 (human) = biological target: T2, Flag-NSE3 (human) (UniProt Q96MG7); experiment: as above
T2 sequence: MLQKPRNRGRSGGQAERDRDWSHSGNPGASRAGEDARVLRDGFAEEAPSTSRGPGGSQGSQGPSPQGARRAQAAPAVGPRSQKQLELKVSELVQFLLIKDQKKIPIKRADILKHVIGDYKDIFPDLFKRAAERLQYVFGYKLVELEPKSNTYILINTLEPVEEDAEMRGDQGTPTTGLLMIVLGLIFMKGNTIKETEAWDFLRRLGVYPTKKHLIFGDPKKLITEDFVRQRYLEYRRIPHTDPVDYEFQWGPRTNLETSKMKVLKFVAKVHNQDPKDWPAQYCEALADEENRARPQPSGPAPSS

Flag-NSE4 (human) = biological target: T3, Flag-NSE4 (human) (UniProt Q9NXX6); experiment: as above
T3 sequence: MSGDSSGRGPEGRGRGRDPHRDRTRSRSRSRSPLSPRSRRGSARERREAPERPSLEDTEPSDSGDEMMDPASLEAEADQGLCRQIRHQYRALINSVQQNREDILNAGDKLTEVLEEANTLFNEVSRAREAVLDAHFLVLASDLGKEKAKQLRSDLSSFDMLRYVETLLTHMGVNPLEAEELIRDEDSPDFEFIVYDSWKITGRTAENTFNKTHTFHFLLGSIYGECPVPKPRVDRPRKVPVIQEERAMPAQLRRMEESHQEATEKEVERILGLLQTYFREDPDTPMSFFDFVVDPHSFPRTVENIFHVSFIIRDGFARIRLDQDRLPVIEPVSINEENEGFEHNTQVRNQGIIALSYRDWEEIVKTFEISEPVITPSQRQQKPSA

Flag-SMC6 (human) = biological target: T4, Flag-SMC6 (human) (UniProt Q96SB8); experiment: as above
T4 sequence: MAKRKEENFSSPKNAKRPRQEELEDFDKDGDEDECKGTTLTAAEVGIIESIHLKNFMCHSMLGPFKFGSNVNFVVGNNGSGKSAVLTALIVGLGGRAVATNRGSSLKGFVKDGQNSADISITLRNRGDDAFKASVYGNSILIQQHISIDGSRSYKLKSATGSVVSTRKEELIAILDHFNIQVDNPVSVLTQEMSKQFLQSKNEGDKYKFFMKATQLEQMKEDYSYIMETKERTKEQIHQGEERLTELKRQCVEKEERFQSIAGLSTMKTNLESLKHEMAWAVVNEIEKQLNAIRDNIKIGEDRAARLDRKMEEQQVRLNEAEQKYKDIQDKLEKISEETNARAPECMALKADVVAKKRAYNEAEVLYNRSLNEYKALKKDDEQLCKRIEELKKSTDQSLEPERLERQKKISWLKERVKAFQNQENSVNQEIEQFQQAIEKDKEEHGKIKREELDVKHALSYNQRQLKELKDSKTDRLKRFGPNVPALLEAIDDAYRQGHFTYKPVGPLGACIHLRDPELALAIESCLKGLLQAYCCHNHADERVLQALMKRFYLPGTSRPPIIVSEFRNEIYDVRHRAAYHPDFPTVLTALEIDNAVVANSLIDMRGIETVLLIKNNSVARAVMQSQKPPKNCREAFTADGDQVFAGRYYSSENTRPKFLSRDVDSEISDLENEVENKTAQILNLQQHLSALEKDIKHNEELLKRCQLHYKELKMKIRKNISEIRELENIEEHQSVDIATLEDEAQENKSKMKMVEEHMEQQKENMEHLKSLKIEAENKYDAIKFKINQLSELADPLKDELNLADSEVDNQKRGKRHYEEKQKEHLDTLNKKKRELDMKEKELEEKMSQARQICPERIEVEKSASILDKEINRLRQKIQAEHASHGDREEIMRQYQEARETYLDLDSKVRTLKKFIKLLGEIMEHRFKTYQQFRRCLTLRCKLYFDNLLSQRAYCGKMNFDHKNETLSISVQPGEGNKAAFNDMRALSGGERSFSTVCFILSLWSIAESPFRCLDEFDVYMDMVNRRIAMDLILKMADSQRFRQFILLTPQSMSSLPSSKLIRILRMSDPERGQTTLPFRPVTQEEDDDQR

[1] = biological target: T5, endogenous NSE4 (human (endogenous in 293T)) (UniProt Q9NXX6); experiment: co-IP; endogenous proteins; 293T cells lysed in RIPA lysis buffer; immunoprecipitated with anti-PJA1 antibody, anti-NSE4 antibody or rabbit IgG; blots for PJA1, NSE4, GAPDH
T5 sequence: T3 sequence

GST-NSE3 (human) = biological target: T6, GST-NSE3 (human) (UniProt Q96MG7); experiment: pull-down; GST fusions immobilised on glutathione-Sepharose beads, incubated with MBP-PJA1BΔR lysates at 4°C for 1 h, washed 5 times with cold PBS; blots with anti-PJA1 or anti-GST; only the target purified
T6 sequence: T2 sequence

GST-NSE4 (human) = biological target: T7, GST-NSE4 (human) (UniProt Q9NXX6); experiment: as above
T7 sequence: T3 sequence

[2] = biological target: T8, HA-NSE4 (from pCAGGS-HA-NSE4) (human) (UniProt Q9NXX6); experiment: co-IP; competitive co-IP: 293T cells cotransfected with pCAGGS-HA-NSE4 and pFlag-SMC5, pFlag-NSE1 or pFlag-NSE3, with or without tag-free pcDNA3.1-PJA1ΔR (0.5 μg) or pcDNA3.1-PJA1BΔR (0, 0.5, 1.5 μg); RIPA lysis buffer; blots with anti-HA or anti-Flag
T8 sequence: T3 sequence

[3] = biological target: endogenous PJA1 (human (endogenous in 293T)) (UniProt Q8NG27); experiment: co-IP; endogenous proteins; 293T cells lysed in RIPA lysis buffer; immunoprecipitated with anti-PJA1 antibody, anti-NSE4 antibody or rabbit IgG; blots for PJA1, NSE4, GAPDH

binding (Flag-NSE1 (human)): no binding
binding (Flag-NSE3 (human)): binds
binding (Flag-NSE4 (human)): binds
binding (Flag-SMC6 (human)): binds
Molecule: HA-PJA1ΔR (PJA1 lacking the RING domain, from pCAGGS-HA-PJA1ΔR) (domain or fragment)

binding [1]: binds
Molecule: endogenous PJA1 (from UniProt Q8NG27-3)

binding (GST-NSE3 (human)): binds
binding (GST-NSE4 (human)): binds weakly
Molecule: maltose-binding protein (MBP)-PJA1BΔR (domain or fragment)

binding [2]: binds
Molecule: tag-free PJA1BΔR (from pcDNA3.1-PJA1BΔR) (domain or fragment)

binding [2]: binds
Molecule: tag-free PJA1ΔR (from pcDNA3.1-PJA1ΔR) (domain or fragment)

binding [3]: binds
B1: endogenous NSE4 (protein, UniProt Q9NXX6 1-385)
chain: T3 sequence
